Measurements as given in the supplement of paper PMC10849652.
This is one part of the list.

The chains behind the UniProt entries cited, without tags or fusion partners. Where a name states a change or a piece, a line headed by the entry shows the natural chain unless it says otherwise.
UniProt Q96DH6: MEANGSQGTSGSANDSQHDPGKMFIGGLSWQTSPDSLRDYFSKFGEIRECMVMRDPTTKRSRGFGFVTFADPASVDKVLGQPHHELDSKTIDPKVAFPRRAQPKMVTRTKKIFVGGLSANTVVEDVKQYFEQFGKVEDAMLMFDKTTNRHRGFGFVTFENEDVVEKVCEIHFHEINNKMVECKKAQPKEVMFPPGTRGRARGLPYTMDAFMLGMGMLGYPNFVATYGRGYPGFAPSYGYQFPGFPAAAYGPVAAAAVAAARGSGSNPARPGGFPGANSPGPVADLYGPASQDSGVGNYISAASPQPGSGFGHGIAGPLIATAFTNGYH
UniProt Q9UGC7: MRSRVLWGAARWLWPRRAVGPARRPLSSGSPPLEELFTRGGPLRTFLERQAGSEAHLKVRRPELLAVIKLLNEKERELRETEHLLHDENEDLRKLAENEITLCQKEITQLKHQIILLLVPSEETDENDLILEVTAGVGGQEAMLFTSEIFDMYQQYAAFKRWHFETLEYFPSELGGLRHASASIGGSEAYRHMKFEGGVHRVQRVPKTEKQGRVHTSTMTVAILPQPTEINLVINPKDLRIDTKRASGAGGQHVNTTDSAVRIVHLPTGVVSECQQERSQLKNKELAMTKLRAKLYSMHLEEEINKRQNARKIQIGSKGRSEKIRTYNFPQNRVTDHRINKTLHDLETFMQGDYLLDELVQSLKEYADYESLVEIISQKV
UniProt Q9BUK6: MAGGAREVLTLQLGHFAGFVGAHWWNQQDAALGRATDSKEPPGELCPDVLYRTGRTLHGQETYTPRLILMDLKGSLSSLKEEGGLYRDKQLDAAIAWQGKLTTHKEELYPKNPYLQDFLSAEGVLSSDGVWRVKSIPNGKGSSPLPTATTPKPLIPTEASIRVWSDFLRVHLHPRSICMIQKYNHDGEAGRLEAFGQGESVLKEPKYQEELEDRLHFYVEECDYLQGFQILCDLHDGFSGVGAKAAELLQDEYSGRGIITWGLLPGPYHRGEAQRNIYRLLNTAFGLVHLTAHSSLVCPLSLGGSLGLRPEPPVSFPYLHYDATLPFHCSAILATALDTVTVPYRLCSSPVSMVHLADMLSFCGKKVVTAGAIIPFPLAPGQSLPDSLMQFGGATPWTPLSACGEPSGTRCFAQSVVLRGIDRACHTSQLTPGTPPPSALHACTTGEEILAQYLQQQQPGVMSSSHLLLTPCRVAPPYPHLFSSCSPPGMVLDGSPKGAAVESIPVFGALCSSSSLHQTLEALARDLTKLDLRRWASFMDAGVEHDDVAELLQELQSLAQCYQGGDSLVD
UniProt P00156: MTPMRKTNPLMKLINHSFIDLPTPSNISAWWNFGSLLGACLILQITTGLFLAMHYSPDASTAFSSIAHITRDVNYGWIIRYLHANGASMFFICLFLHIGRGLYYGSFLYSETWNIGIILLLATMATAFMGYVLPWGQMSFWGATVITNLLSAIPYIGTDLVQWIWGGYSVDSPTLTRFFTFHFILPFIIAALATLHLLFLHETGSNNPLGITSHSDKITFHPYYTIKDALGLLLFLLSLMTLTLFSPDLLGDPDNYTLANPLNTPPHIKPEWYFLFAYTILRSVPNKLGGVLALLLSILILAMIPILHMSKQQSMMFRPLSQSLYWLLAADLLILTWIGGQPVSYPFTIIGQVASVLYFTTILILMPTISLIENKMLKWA
UniProt Q96QG7: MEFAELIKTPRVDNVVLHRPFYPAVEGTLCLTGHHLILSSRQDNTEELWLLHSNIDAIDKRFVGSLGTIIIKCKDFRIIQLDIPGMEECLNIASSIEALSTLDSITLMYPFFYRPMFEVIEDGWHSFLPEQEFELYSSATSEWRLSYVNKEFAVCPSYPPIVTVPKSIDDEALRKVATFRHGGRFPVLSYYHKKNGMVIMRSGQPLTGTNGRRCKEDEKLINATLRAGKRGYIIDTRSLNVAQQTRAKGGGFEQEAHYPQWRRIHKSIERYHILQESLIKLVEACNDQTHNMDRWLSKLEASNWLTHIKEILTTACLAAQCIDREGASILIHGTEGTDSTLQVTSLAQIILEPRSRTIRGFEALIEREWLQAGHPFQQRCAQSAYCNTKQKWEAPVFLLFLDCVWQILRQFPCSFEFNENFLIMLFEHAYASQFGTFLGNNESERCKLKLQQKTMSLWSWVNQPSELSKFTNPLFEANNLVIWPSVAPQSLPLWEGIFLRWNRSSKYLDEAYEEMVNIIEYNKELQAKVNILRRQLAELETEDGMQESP
UniProt P46199: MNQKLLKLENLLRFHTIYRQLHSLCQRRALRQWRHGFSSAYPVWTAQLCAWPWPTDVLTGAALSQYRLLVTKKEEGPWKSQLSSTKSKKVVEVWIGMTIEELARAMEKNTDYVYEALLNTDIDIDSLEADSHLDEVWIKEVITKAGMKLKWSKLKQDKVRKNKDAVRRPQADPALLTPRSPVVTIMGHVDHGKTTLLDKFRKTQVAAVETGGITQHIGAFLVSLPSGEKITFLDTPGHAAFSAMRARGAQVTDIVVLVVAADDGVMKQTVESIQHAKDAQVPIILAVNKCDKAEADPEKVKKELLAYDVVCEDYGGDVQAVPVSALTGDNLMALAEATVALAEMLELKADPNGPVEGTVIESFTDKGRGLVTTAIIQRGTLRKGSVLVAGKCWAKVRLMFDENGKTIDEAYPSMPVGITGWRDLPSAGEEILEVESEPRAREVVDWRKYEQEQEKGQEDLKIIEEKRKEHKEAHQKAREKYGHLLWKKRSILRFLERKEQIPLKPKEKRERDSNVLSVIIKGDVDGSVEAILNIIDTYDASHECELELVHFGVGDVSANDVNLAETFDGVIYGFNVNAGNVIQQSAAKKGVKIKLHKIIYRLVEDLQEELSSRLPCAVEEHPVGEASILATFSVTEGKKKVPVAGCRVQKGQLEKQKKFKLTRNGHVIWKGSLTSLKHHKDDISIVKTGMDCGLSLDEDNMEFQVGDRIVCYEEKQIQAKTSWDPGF
UniProt Q9BTC8: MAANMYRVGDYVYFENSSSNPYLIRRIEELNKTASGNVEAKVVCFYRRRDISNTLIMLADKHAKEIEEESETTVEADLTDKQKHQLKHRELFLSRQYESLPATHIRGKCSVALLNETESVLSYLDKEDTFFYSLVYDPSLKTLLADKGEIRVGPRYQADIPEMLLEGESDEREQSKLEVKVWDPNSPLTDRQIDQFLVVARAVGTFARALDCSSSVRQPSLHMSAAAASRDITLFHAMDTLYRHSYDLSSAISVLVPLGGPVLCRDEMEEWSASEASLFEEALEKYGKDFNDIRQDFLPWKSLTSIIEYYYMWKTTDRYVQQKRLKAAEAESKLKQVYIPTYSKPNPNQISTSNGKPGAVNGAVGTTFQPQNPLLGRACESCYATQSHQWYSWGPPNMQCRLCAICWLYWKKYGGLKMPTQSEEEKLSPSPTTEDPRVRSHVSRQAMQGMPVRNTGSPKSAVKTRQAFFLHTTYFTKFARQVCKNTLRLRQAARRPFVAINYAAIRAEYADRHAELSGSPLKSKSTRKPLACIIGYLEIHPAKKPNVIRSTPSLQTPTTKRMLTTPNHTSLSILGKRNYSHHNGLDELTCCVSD
UniProt Q86UE4: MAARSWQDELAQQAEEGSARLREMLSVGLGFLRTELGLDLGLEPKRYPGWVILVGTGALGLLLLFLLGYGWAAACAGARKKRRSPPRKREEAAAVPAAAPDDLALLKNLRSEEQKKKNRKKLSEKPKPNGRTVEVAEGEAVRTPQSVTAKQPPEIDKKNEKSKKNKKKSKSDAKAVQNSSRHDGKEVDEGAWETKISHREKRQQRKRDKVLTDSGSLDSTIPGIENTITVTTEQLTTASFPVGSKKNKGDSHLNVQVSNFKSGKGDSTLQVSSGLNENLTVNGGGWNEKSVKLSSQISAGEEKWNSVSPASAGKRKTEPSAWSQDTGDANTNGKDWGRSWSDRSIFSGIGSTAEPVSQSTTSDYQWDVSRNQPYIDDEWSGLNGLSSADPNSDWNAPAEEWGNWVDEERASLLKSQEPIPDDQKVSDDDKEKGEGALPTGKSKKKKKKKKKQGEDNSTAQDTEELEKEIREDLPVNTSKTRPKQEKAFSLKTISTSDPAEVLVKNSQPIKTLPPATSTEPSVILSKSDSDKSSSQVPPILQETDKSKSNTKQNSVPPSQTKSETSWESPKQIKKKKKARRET
UniProt Q9UDX5: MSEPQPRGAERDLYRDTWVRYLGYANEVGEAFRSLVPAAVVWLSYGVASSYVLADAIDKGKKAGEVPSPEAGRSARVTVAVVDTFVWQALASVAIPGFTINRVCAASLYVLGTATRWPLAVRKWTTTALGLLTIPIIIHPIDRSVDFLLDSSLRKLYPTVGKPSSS
UniProt P42898: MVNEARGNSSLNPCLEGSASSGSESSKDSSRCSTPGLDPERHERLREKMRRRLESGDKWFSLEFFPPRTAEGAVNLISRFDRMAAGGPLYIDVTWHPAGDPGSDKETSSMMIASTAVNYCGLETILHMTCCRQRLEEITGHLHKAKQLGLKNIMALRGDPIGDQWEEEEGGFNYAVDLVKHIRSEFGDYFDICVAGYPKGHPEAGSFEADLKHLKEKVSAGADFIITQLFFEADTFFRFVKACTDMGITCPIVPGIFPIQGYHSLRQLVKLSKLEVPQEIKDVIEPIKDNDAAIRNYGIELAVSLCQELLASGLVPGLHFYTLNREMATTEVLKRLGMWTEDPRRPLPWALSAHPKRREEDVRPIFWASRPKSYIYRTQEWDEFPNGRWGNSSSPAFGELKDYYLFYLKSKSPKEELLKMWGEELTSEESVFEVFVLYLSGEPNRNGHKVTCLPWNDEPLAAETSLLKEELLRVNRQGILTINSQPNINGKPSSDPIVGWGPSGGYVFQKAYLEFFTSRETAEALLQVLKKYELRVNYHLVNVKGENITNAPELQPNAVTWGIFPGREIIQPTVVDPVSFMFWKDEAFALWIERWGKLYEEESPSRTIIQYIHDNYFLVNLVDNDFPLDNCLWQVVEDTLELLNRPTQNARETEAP
UniProt Q13505: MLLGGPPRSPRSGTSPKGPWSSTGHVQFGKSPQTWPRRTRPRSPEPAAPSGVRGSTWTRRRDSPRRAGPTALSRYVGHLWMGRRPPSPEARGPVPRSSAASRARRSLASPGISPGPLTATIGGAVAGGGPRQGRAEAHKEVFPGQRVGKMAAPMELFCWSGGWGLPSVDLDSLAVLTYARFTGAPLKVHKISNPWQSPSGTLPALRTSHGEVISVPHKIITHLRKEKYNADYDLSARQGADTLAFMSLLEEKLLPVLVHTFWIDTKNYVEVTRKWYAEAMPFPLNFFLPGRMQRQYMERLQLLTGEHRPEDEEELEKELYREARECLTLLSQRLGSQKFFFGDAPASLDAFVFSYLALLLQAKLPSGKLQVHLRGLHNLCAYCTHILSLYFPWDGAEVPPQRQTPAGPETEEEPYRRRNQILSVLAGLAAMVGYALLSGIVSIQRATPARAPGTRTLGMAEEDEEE
UniProt P49914: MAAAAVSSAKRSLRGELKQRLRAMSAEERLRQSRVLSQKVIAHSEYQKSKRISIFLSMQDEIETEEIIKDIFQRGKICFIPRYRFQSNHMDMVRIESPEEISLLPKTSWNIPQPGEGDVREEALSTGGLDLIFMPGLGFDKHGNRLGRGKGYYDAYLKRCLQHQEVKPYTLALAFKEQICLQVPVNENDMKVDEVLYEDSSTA
UniProt P03891, whole entry, looked up: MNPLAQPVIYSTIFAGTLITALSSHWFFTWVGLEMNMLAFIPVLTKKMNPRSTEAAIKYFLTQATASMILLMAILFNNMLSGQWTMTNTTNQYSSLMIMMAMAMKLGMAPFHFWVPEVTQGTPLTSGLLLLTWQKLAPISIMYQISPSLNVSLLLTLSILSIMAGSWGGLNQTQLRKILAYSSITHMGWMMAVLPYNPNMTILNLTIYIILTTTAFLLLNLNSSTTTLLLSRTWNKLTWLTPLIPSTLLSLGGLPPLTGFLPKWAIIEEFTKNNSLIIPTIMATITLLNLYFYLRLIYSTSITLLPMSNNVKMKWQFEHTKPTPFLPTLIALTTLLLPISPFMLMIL

Key:
Assay in all cases: log2 fold change, soluble protein after heating vs DMSO (PISA); higher = thermal stabilisation; K562 lysate, 10 uM; active = over 0.2 and 3.5 SD of the protein, either way, in both replicates (recomputed)
nilotinib = compound: Cc1cn(-c2cc(NC(=O)c3ccc(C)c(Nc4nccc(-c5cccnc5)n4)c3)cc(C(F)(F)F)c2)cn1 [nilotinib]
How it was run: (§1)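 Dounce homogenisation of K562 pellets in PBS pH 7.4 with 1 mM MgCl2 produced a crude extract, used at 1 mg/mL protein. Exposure to 10 μM compound lasted 30 min, and aliquots were then heated for 3 min across 48°C-58°C, pooled and brought to 0.5% NP-40 at 4°C. The supernatant after 21,000xg for 90 min was quantified by TMTpro 16plex LC-MS/MS with channel sums equalised. Duplicate values are given as log-two fold change in thermal stability relative to solvent controls.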

[1] = compound: Cc1nc(Nc2n[nH]c3c2CN(C(=O)N[C@H](CN(C)C)c2ccccc2)C3(C)C)c2sccc2n1
How it was run: as §1

dasatinib = compound: Cc1nc(Nc2ncc(C(=O)Nc3c(C)cccc3Cl)s2)cc(N2CCN(CCO)CC2)n1 [dasatinib]
How it was run: as §1

[2] = compound: Cc1ncc(-c2ccnc(Nc3ccc(S(C)(=O)=O)cc3)n2)n1C(C)C
How it was run: as §1

[3] = compound: Cn1cc(-c2ccc3c(c2)CCN3C(=O)Cc2cccc(C(F)(F)F)c2)c2c(N)ncnc21
How it was run: as §1

quisinostat = compound: Cn1cc(CNCC2CCN(c3ncc(C(=O)NO)cn3)CC2)c2ccccc21 [quisinostat]
How it was run: as §1

tipifarnib = compound: Cn1cncc1[C@@](N)(c1ccc(Cl)cc1)c1ccc2c(c1)c(-c1cccc(Cl)c1)cc(=O)n2C [tipifarnib]
How it was run: as §1

[4] = compound: NC(=O)Nc1cc(-c2cccc(F)c2)sc1C(=O)N[C@H]1CCCNC1
How it was run: as §1

[5] = compound: NC(=O)c1cnc(N[C@@H]2CCCC[C@@H]2N)nc1Nc1cccc(-n2nccn2)c1
How it was run: as §1

[6] = compound: NC1(c2ccc(-c3nc4ccn5c(=O)[nH]nc5c4cc3-c3ccccc3)cc2)CCC1
How it was run: as §1

Measured: log2 fold change

MRPS31 (UniProt Q92665)
inactive: nilotinib -0.005 | [1] -0.002 | dasatinib -0.034 | [2] 0.034 | [3] 0.002 | quisinostat -0.046 | tipifarnib 0.015 | [4] 0.022 | [5] -0.026 | [6] -0.014

MRPL41 (UniProt Q8IXM3)
inactive: nilotinib 0.054 | [1] -0.056 | dasatinib -0.025 | [2] -0.068 | [3] 0.037 | quisinostat 0.018 | tipifarnib 0.019 | [4] 0.023 | [5] 0.008 | [6] 0.023

MSI2 (UniProt Q96DH6)
inactive: nilotinib -0.089 | [1] 0.011 | dasatinib 0.01 | [2] 0.009 | [3] 0.049 | quisinostat 0.023 | tipifarnib -0.057 | [4] 0.029 | [5] 0.028 | [6] -0.016

MTRF1L (UniProt Q9UGC7)
inactive: nilotinib 0.017 | [1] 0.008 | dasatinib 0.038 | [2] -0.079 | [3] -0.016 | quisinostat -0.012 | tipifarnib 0.038 | [4] -0.02 | [5] 0.044 | [6] -0.061

MRPS22 (UniProt P82650)
inactive: nilotinib -0.068 | [1] 0.001 | dasatinib 0.03 | [2] 0.117 | [3] 0.062 | quisinostat -0.086 | tipifarnib 0.032 | [4] 0.054 | [5] 0.002 | [6] -0.012

MRPS11 (UniProt P82912)
inactive: nilotinib -0.108 | [1] 0.074 | dasatinib -0.109 | [2] 0.006 | [3] 0.038 | quisinostat 0.036 | tipifarnib 0.175 | [4] 0.061 | [5] -0.014 | [6] -0.091

MSTO1 (UniProt Q9BUK6)
inactive: nilotinib -0.009 | [1] 0.031 | dasatinib 0.019 | [2] -0.053 | [3] 0.005 | quisinostat -0.054 | tipifarnib -0.006 | [4] 0.008 | [5] -0.02 | [6] 0.054

MT-CYB (UniProt P00156)
inactive: nilotinib 0.063 | [1] -0.081 | dasatinib 0.16 | [2] 0.011 | [3] 0 | quisinostat -0.131 | tipifarnib -0.184 | [4] -0.003 | [5] -0.037 | [6] -0.06

MRPS24 (UniProt Q96EL2)
inactive: nilotinib -0.041 | [1] -0.001 | dasatinib 0.083 | [2] -0.04 | [3] 0.137 | quisinostat 0.069 | tipifarnib -0.004 | [4] -0.063 | [5] -0.002 | [6] 0

MRPL54 (UniProt Q6P161)
inactive: nilotinib 0.011 | [1] -0.006 | dasatinib 0.032 | [2] 0.007 | [3] 0.033 | quisinostat -0.108 | tipifarnib 0.03 | [4] 0.003 | [5] -0.014 | [6] 0.005

MTMR9 (UniProt Q96QG7)
inactive: nilotinib -0.031 | [1] 0 | dasatinib -0.081 | [2] -0.137 | [3] 0.01 | quisinostat -0.017 | tipifarnib 0.062 | [4] -0.017 | [5] 0.005 | [6] -0.052

MRPL40 (UniProt Q9NQ50)
inactive: nilotinib -0.033 | [1] 0.007 | dasatinib -0.055 | [2] 0.012 | [3] -0.016 | quisinostat 0.018 | tipifarnib -0.008 | [4] 0.017 | [5] -0.029 | [6] -0.011

MTIF2 (UniProt P46199)
inactive: nilotinib -0.014 | [1] -0.019 | dasatinib -0.013 | [2] -0.02 | [3] 0.052 | quisinostat -0.075 | tipifarnib 0.011 | [4] 0.029 | [5] 0.041 | [6] -0.066

MRPS7 (UniProt Q9Y2R9)
inactive: nilotinib 0.005 | [1] -0.023 | dasatinib -0.013 | [2] 0.037 | [3] 0.047 | quisinostat 0.044 | tipifarnib 0.037 | [4] 0.002 | [5] 0 | [6] -0.019

MRPL33 (UniProt O75394)
inactive: nilotinib 0.062 | [1] -0.074 | dasatinib -0.021 | [2] 0.073 | [3] -0.091 | quisinostat -0.017 | tipifarnib 0.08 | [4] 0.037 | [5] 0.076 | [6] 0.061

MTA3 (UniProt Q9BTC8)
inactive: nilotinib 0.034 | [1] -0.059 | dasatinib -0.005 | [2] -0.019 | [3] -0.017 | quisinostat -0.061 | tipifarnib 0.009 | [4] 0.03 | [5] 0.005 | [6] -0.047

MTOR (UniProt P42345)
inactive: nilotinib 0.007 | [1] -0.022 | dasatinib -0.064 | [2] 0.001 | [3] 0.039 | quisinostat -0.067 | tipifarnib 0.015 | [4] 0.04 | [5] 0.017 | [6] -0.033

Retrieved one by one from the entries so far (2):
MRPL33 (UniProt O75394)
inactive: nilotinib 0.062 | [1] -0.074 | dasatinib -0.021 | [2] 0.073 | [3] -0.091 | quisinostat -0.017 | tipifarnib 0.08 | [4] 0.037 | [5] 0.076 | [6] 0.061

MRPS11 (UniProt P82912)
inactive: nilotinib -0.108 | [1] 0.074 | dasatinib -0.109 | [2] 0.006 | [3] 0.038 | quisinostat 0.036 | tipifarnib 0.175 | [4] 0.061 | [5] -0.014 | [6] -0.091

More records follow.

MTDH (UniProt Q86UE4)
inactive: nilotinib -0.033 | [1] 0.022 | dasatinib 0.024 | [2] 0.004 | [3] -0.024 | quisinostat 0.009 | tipifarnib -0.03 | [4] -0.006 | [5] -0.016 | [6] -0.033

MRPS5 (UniProt P82675)
inactive: nilotinib -0.037 | [1] 0.044 | dasatinib 0.009 | [2] -0.001 | [3] 0.042 | quisinostat -0.009 | tipifarnib 0.016 | [4] 0.025 | [5] 0.021 | [6] -0.018

MRPL46 (UniProt Q9H2W6)
inactive: nilotinib -0.036 | [1] 0.039 | dasatinib 0.016 | [2] 0.064 | [3] 0.03 | quisinostat -0.034 | tipifarnib 0.05 | [4] 0.03 | [5] -0.023 | [6] 0.035

MTFP1 (UniProt Q9UDX5)
inactive: nilotinib 0.044 | [1] -0.021 | dasatinib 0.069 | [2] 0.043 | [3] 0.008 | quisinostat 0.133 | tipifarnib -0.014 | [4] 0.02 | [5] -0.103 | [6] -0.004

MRTO4 (UniProt Q9UKD2)
inactive: nilotinib -0.007 | [1] -0.001 | dasatinib 0.022 | [2] -0.037 | [3] 0.025 | quisinostat 0.101 | tipifarnib 0.016 | [4] 0.001 | [5] -0.041 | [6] -0.03

MRPL47 (UniProt Q9HD33)
inactive: nilotinib 0.051 | [1] 0.046 | dasatinib -0.062 | [2] -0.057 | [3] 0.009 | quisinostat 0.054 | tipifarnib -0.052 | [4] 0.038 | [5] 0.044 | [6] -0.054

MTHFR isoform 2 (UniProt P42898)
inactive: nilotinib 0.019 | [1] 0.019 | dasatinib -0.031 | [2] -0.016 | [3] 0.009 | quisinostat -0.037 | tipifarnib -0.019 | [4] 0.04 | [5] 0.004 | [6] 0.01

MRPS12 (UniProt O15235)
inactive: nilotinib -0.026 | [1] 0.061 | dasatinib -0.104 | [2] -0.041 | [3] -0.007 | quisinostat -0.051 | tipifarnib -0.012 | [4] 0.01 | [5] 0.018 | [6] 0.063

MRPL38 (UniProt Q96DV4)
inactive: nilotinib 0.009 | [1] -0.009 | dasatinib -0.017 | [2] 0.077 | [3] 0.135 | quisinostat -0.013 | tipifarnib 0.013 | [4] 0.01 | [5] 0.064 | [6] -0.059

MTX1 (UniProt Q13505)
inactive: nilotinib -0.008 | [1] -0.039 | dasatinib 0.03 | [2] 0.007 | [3] -0.031 | quisinostat 0.039 | tipifarnib -0.014 | [4] -0.007 | [5] -0.02 | [6] 0.023

MTHFS (UniProt P49914)
inactive: nilotinib 0.079 | [1] -0.064 | dasatinib 0.024 | [2] -0.028 | [3] 0.003 | quisinostat -0.126 | tipifarnib -0.037 | [4] 0.06 | [5] 0.006 | [6] -0.033

MTHFD1L (UniProt B7ZM99)
inactive: nilotinib -0.017 | [1] 0.028 | dasatinib -0.061 | [2] 0.002 | [3] 0.046 | quisinostat -0.055 | tipifarnib -0.01 | [4] 0.074 | [5] 0.019 | [6] -0.017

MT-ND2 (UniProt P03891)
inactive: nilotinib -0.038 | [1] -0.018 | dasatinib -0.082 | [2] 0.028 | [3] 0.078 | quisinostat 0.029 | tipifarnib 0.009 | [4] 0.022 | [5] 0.036 | [6] -0.022
